Measurements reported in PubChem BioAssay AID1259405 (NCATS, 2018).

Test: 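Mouse-designed siRNAs used to find CHO productivity engineering targets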 (primary screen)
System: Chinese hamster CHO-K1 ovary cells with stable secreted eGFP expression
Knock-down reagent: single siRNA against mouse genes, 0.8 pmol siRNA per well (2 µl of 400 nM stock)
Timing: 3 days
Detection: 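Percent of the per-plate non-targeting control median for intracellular GFP per well by laser scanning cytometry and for cell viability by ATP luminescence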
Reading the numbers: GFP, % of control: higher = more GFP per well, higher productivity; viability (ATP), % of control: higher = more viable cells (more ATP)
Active means: 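Called active when intracellular GFP, relative to negative control, is at or above 120%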
This is an unselected part of about 50,000 reagents. About 4,000 of all reagents (8%) were called active. 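Mouse siRNA library applied to hamster cells; one well for each siRNA.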 The numbers tell different reagents against one gene apart.

gene	reagent no.	GFP, % of control	viability (ATP), % of control	outcome
Sardh	1	77.3	95.9	inactive
Sardh	2	104	65.8	inactive
Sardh	3	59.6	69.4	inactive
Or8k39	1	98.8	41.3	inactive
Or8k39	2	77.4	63.8	inactive
Or8k39	3	52.8	121	inactive
Tnnc2	1	32.7	37.9	inactive
Tnnc2	2	97.2	113	inactive
Cdca5	1	96.3	107	inactive
Cdca5	2	63.7	58.8	inactive
Cdca5	3	81.6	92.7	inactive
Zfp202	1	111	80.5	inactive
Zfp202	2	101	120	inactive
Zfp202	3	82.8	92.2	inactive
Ighg	1	83.2	89.2	inactive
Ighg	2	74.1	74	inactive
Ighg	3	37.1	46.1	inactive
Sprr2h	1	62.6	56	inactive
Sprr2h	2	97.6	111	inactive
Sprr2h	3	144	124	active
Tmc6	1	87.2	70.9	inactive
Tmc6	2	55.1	55.9	inactive
Tmc6	3	106	127	inactive
Gp2	1	98.6	59.2	inactive
Gp2	2	62.6	58.3	inactive
Gp2	3	135	97	active
Fbxo15	1	106	97.2	inactive
Fbxo15	2	90.6	78.4	inactive
Fbxo15	3	102	71.5	inactive
Mrpl19	1	54.5	51.9	inactive
Mrpl19	2	59.4	64.5	inactive
Mrpl19	3	120	74.5	active
Crhr2	1	79.5	85.4	inactive
Crhr2	2	49	67.2	inactive
Crhr2	3	44.7	35	inactive

Hits, among the entries above:
gene	reagent no.	GFP, % of control	viability (ATP), % of control	outcome
Sprr2h	3	144	124	active
Gp2	3	135	97	active
Mrpl19	3	120	74.5	active
